Assay [1] deals with T1, SpSaf1 (two-hybrid bait) (S. pombe) (UniProt O74517).
T1 sequence: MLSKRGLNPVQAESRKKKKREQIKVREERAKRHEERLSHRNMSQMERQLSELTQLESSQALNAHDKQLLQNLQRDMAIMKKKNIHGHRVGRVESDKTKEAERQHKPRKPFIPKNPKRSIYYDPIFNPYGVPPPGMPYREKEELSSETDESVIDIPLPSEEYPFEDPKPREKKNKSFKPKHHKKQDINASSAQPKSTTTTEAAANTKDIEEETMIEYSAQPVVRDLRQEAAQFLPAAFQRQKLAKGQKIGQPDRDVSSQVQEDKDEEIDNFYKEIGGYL
The experiment in a line: two-hybrid; directed two-hybrid in S. cerevisiae strain PJ69-4A with pGBT9 and pGAD vectors; growth on selective media and ß-galactosidase activity.

Sequences of proteins named here, by UniProt entry; tags and fusion partners are left off. A change or cut given only in a name is not applied to a line headed by its entry.
UniProt O14097: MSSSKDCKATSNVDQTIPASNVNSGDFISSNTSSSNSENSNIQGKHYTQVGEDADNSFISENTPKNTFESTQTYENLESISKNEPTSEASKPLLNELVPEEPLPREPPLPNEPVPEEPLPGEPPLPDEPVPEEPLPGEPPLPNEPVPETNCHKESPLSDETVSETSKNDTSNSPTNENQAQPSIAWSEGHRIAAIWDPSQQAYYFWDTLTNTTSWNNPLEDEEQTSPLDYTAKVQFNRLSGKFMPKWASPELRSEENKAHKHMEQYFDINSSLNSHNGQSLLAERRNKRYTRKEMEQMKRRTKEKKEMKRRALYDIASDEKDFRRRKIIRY
UniProt Q9P7H6: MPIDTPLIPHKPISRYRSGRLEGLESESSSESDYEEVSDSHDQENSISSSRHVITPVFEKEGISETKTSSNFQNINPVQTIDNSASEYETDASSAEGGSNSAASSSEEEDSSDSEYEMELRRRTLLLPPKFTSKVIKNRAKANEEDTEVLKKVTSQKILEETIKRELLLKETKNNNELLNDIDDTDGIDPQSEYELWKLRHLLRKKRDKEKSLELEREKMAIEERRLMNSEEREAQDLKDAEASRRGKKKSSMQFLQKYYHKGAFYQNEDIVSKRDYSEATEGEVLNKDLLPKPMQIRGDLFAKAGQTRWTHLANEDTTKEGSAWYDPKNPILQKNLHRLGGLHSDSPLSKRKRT

A further assay deals with T2, S. pombe Prp19-Myc13 (S. pombe, UniProt O14011 1-488).
T2 construct: Prp19 (Cwf8), S. pombe, open reading frame tagged at the 3' end of the endogenous locus; also called SpPrp19; Cwf8; source: S. pombe, tagged at the endogenous locus, in lysate; not shown: Myc13, C-terminal, kept
T2 sequence (looked up): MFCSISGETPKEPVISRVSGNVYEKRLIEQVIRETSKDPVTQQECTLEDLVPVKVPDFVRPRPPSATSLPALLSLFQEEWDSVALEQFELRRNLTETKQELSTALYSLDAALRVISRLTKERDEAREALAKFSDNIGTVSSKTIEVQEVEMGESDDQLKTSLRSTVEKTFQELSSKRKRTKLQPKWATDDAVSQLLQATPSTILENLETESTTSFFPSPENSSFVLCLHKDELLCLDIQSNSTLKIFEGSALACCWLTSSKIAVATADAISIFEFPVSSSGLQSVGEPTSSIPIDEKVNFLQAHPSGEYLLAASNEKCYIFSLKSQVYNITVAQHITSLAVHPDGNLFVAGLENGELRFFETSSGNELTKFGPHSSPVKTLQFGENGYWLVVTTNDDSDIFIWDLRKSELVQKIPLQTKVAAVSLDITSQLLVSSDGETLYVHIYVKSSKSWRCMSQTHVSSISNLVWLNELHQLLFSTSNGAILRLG
The experiment in a line: co-IP; S. pombe lysates of epitope-tagged strains (NP-40 lysis buffer); anti-Myc, anti-GFP, anti-FLAG or IgG (TAP) immunoprecipitates, immunoblot.

The target of assay [2] is T3, SpDre4, epitope-tagged (S. pombe) (UniProt Q09685).
T3 sequence: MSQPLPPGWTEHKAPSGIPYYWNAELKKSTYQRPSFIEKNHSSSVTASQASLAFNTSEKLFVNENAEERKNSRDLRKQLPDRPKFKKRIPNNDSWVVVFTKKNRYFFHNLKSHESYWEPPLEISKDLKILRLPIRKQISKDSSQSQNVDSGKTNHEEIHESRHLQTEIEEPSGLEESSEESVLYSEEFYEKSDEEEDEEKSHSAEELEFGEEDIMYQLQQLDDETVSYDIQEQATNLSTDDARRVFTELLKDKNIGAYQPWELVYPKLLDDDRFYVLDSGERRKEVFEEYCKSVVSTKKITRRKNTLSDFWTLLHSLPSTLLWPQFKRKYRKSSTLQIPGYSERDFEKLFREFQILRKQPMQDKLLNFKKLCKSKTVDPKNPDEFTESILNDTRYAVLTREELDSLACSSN
The assay is described as above.

Results are given in words; binding and its absence hold for the method and conditions named. Binding can be weak; no strength is given. For some assays here: Binding seen in cells or lysates may run through a third protein. For some assays here: Sequences can lack the tags named with a protein.

Consider “SpDre4 WW domain region (two-hybrid prey) (S. pombe) (domain or fragment)”, for which, in assay [1], the binding entry is recorded as “binds”.
Regarding “SpSaf2, epitope-tagged at the endogenous locus (from UniProt O14097)”, the binding result (with S. pombe Prp19-Myc13; in assay [2]) was “binds” each time.
Consider “SpSaf3, epitope-tagged at the endogenous locus (from UniProt Q9P7H6)”, for which the binding result (with S. pombe Prp19-Myc13; in assay [2]) was “binds” each time.
